{
  "sequences": {"note": "Sequences of proteins named here, by UniProt entry; tags and fusion partners are left off. A change or cut given only in a name is not applied to a line headed by its entry.", "UniProt P97546": "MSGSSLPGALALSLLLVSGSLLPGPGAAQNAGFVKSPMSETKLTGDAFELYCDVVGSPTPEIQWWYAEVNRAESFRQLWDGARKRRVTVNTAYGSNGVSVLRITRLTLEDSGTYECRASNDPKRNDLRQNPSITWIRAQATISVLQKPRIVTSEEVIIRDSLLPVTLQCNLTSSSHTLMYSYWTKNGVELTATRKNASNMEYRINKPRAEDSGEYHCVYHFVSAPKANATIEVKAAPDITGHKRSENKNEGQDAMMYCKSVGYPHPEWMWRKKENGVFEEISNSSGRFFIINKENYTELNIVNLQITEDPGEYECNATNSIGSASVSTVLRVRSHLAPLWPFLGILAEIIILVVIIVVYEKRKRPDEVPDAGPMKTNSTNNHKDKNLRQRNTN"},
  "source": "paper doi:10.1101/768341",
  "molecules": {"B1": {"name": "Flag-TRAF6 (protein, UniProt P70196 1-530)", "chain": "MSLLNCENSCGSSQSSSDCCAAMAASCSAAVKDDSVSGSASTGNLSSSFMEEIQGYDVEFDPPLESKYECPICLMALREAVQTPCGHRFCKACIIKSIRDAGHKCPVDNEILLENQLFPDNFAKREILSLTVKCPNKGCLQKMELRHLEDHQVHCEFALVNCPQCQRPFQKCQVNTHIIEDCPRRQVSCVNCAVSMAYEEKEIHDQSCPLANIICEYCGTILIREQMPNHYDLDCPTAPIPCTFSVFGCHEKMQRNHLARHLQENTQLHMRLLAQAVHNVNLALRPCDAASPSRGCRPEDPNYEETIKQLESRLVRQDHQIRELTAKMETQSMYVGELKRTIRTLEDKVAEMEAQQCNGIYIWKIGNFGMHLKSQEEERPVVIHSPGFYTGRPGYKLCMRLHLQLPTAQRCANYISLFVHTMQGEYDSHLPWPFQGTIRLTILDQSEALIRQNHEEVMDAKPELLAFQRPTIPRNPKGFGYVTFMHLEALRQGTFIKDDTLLVRCEVSTRFDMGGLRKEGFQPRSTDAGV"}},
  "key": {"GST-TRAF6 (mouse)": {"target": "T1, GST-TRAF6 (mouse) (UniProt P70196)", "T1 sequence": "B1 chain", "experiment": "pull-down"}, "GST-TRAF6cc-c (mouse)": {"target": "T2, GST-TRAF6cc-c (mouse) (UniProt P70196)", "T2 sequence": "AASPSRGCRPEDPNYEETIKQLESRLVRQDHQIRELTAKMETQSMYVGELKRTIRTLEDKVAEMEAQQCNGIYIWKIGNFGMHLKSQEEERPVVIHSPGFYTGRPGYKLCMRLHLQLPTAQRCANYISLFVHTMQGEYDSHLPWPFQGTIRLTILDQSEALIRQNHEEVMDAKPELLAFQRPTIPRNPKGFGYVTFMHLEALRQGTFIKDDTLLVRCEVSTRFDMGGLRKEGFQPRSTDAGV", "experiment": "pull-down"}, "Np55DDEP(-)-GFP": {"target": "Np55DDEP(-)-GFP", "experiment": "co-IP"}, "Np65-GFP": {"target": "Np65-GFP (UniProt P97546)", "experiment": "co-IP"}, "Np55-GFP": {"target": "Np55-GFP", "experiment": "co-IP"}},
  "note": "Results are given in words; binding and its absence hold for the method and conditions named. In cells and extracts the contact can be indirect. Binding can be weak; no strength is given. Sequences can lack the tags named with a protein.",
  "data": [
    {"molecule": "Np65-GFP (from UniProt P97546-2)", "values": [
      {"measurement": "binding", "setting": "GST-TRAF6 (mouse)", "value": "binds"},
      {"measurement": "binding", "setting": "GST-TRAF6cc-c (mouse)", "value": "binds"}
    ]},
    {"molecule": "B1", "values": [
      {"measurement": "binding", "setting": "Np55DDEP(-)-GFP", "value": "binds"},
      {"measurement": "binding", "setting": "Np65-GFP", "value": "binds"},
      {"measurement": "binding", "setting": "Np55-GFP", "value": "binds"}
    ]}
  ]
}
